Assay results published in patent US20220289816A1, “IMMUNOTHERAPY WITH B*07 RESTRICTED PEPTIDES AND COMBINATION OF PEPTIDES AGAINST CANCERS AND RELATED METHODS” (Immatics Biotechnologies GmbH, priority 2018, published 2022).
For part of these data: For expression read-outs the peptide stands for its source gene, whose mRNA was measured; the gene is not named for every peptide.

Columns and labels:
[1] = system: tumor tissue samples and normal tissue samples (HLA-B*07 positive); assay: Identification and quantitation of tumor associated peptides presented on the cell surface (HLA immunoprecipitation, label-free LC-MS); set-up: species or system human; conditions: Table 8a; cancer entities on which the peptide was found presented (abbreviations in table head)
[2] = system: source genes of the peptides (mRNA); assay: Expression profiling of genes encoding the peptides (RNAseq of tumor and normal tissue RNA); set-up: species or system human; conditions: for Gene Expression in tumor samples: Highly over-expressed (++): tumor entities in which the source gene of the peptide is highly over-expressed compared to a panel of normal tissues (RNAseq); for Gene Expression in tumor samples: over-expressed (+): tumor entities in which the source gene of the peptide is over-expressed compared to a panel of normal tissues (RNAseq)

With “217: peptide found in APOB (gene looked up) (SPGDKRLAAYL; listed as Homo sapiens) [compound 217]” the “Peptide Presentation on cancer entities” value [1] was “CCC, HCC” and the “Gene Expression in tumor samples: Highly over-expressed (++)” value [2] was “HCC”.

For “220: peptide found in GRIN2D (gene looked up) (RPAPGPAPFV; listed as Homo sapiens) [compound 220]”, the “Peptide Presentation on cancer entities” value [1] was “BRCA”, the “Gene Expression in tumor samples: Highly over-expressed (++)” value [2] was “CRC, GC” and the “Gene Expression in tumor samples: over-expressed (+)” value (from here on “Gene Expression … over-expressed (+)”) [2] was “GBC, HNSCC, MEL, NSCLCadeno, OSCAR, PACA, UBC, UEC”.

“222: peptide found in APOB (gene looked up) (MLKTTLTAF; listed as Homo sapiens) [compound 222]” was tested, and the “Peptide Presentation on cancer entities” value [1] was “HCC” and the “Gene Expression in tumor samples: Highly over-expressed (++)” value [2] was “HCC”.

In the case of “230: peptide found in MITF (gene looked up) (DVIDDIISL; listed as Homo sapiens) [compound 230]”, the “Peptide Presentation on cancer entities” value [1] is reported as “GBM, HCC, HNSCC, NHL, NSCLCsquam” and the “Gene Expression in tumor samples: Highly over-expressed (++)” value [2] is reported as “MEL”.

With “231: peptide found in APOB (gene looked up) (SPITLQAL; listed as Homo sapiens) [compound 231]” the “Peptide Presentation on cancer entities” value [1] was “HCC” and the “Gene Expression in tumor samples: Highly over-expressed (++)” value [2] was “HCC”.

In the case of “236: peptide found in APOB (gene looked up) (TPELKSSIL; listed as Homo sapiens) [compound 236]”, the “Peptide Presentation on cancer entities” value [1] is reported as “HCC” and the “Gene Expression in tumor samples: Highly over-expressed (++)” value [2] is reported as “HCC”.

For “249: peptide found in LGR5 (gene looked up) (SPRSGVLL; listed as Homo sapiens) [compound 249]”, the “Peptide Presentation on cancer entities” value [1] was “OSCAR, UEC” and the “Gene Expression in tumor samples: Highly over-expressed (++)” value [2] was “UEC”.

With “254: peptide found in PHEX (gene looked up) (RVIQGTTTL; listed as Homo sapiens) [compound 254]” the “Peptide Presentation on cancer entities” value [1] was “HCC”, the “Gene Expression in tumor samples: Highly over-expressed (++)” value [2] was “CLL” and the “Gene Expression … over-expressed (+)” value [2] was “NHL”.

For “258: peptide found in BTLA (gene looked up) (SVIGPNSRL; listed as Homo sapiens) [compound 258]”, the “Peptide Presentation on cancer entities” value [1] was “SCLC”, the “Gene Expression in tumor samples: Highly over-expressed (++)” value [2] was “CLL” and the “Gene Expression … over-expressed (+)” value [2] was “NHL”.

With “261: peptide found in EGFR (gene looked up) (SPSTSRTPL; listed as Homo sapiens) [compound 261]” the “Peptide Presentation on cancer entities” value [1] was “GBC, GBM, HCC, HNSCC, NSCLCadeno” and the “Gene Expression in tumor samples: Highly over-expressed (++)” value [2] was “GBM”.

With “262: peptide found in EGFR (gene looked up) (SPSTSRTPLLSSL; listed as Homo sapiens) [compound 262]” the “Peptide Presentation on cancer entities” value [1] was “BRCA, CCC, GBC, GBM, HCC, HNSCC, NHL, OSCAR, RCC, UEC” and the “Gene Expression in tumor samples: Highly over-expressed (++)” value [2] was “GBM”.

For “266: peptide found in LOXL3 (gene looked up) (KPYEGRVEI; listed as Homo sapiens) [compound 266]”, the “Peptide Presentation on cancer entities” value [1] was “CLL, GBM” and the “Gene Expression in tumor samples: Highly over-expressed (++)” value [2] was “MEL”.

For “274: peptide found in APOB (gene looked up) (KPIRTGISPLAL; listed as Homo sapiens) [compound 274]”, the “Peptide Presentation on cancer entities” value [1] was “CCC, HCC” and the “Gene Expression in tumor samples: Highly over-expressed (++)” value [2] was “HCC”.

In the case of “281: peptide found in SIGLEC15 (gene looked up) (NPRSPPATM; listed as Homo sapiens) [compound 281]”, the “Peptide Presentation on cancer entities” value [1] is reported as “AML, OC”, the “Gene Expression in tumor samples: Highly over-expressed (++)” value [2] is reported as “UBC” and the “Gene Expression … over-expressed (+)” value [2] is reported as “HCC, UEC”.

With “282: peptide found in MPL (gene looked up) (AVRLPTPNL; listed as Homo sapiens) [compound 282]” the “Peptide Presentation on cancer entities” value [1] was “AML” and the “Gene Expression … over-expressed (+)” value [2] was “AML”.

“297: peptide found in MET (gene looked up) (FPIKYVNDF; listed as Homo sapiens) [compound 297]” was tested, and the “Peptide Presentation on cancer entities” value [1] was “RCC” and the “Gene Expression … over-expressed (+)” value [2] was “CCC, GBC, NSCLCadeno”.

In the case of “306: peptide found in CYP2W1 (gene looked up) (RPFPLALL; listed as Homo sapiens) [compound 306]”, the “Peptide Presentation on cancer entities” value [1] is reported as “CRC” and the “Gene Expression … over-expressed (+)” value [2] is reported as “CRC”.

With “318: peptide found in SIGLEC6 (gene looked up) (TPISNTGVL; listed as Homo sapiens) [compound 318]” the “Peptide Presentation on cancer entities” value [1] was “AML, GBC, NHL, NSCLCadeno, NSCLCother, RCC” and the “Gene Expression … over-expressed (+)” value [2] was “CLL, NHL”.

In the case of “327: peptide found in SIGLEC6 (gene looked up) (GPRTTQSSVL; listed as Homo sapiens) [compound 327]”, the “Peptide Presentation on cancer entities” value [1] is reported as “NSCLCadeno” and the “Gene Expression … over-expressed (+)” value [2] is reported as “CLL, NHL”.

With “330: peptide found in MORC4 (gene looked up) (RPFSAIAEL; listed as Homo sapiens) [compound 330]” the “Peptide Presentation on cancer entities” value [1] was “GBC” and the “Gene Expression … over-expressed (+)” value [2] was “CCC”.

For “336: peptide found in NUP155 (gene looked up) (YPLQGPGLLSV; listed as Homo sapiens) [compound 336]”, the “Peptide Presentation on cancer entities” value [1] was “NHL” and the “Gene Expression … over-expressed (+)” value [2] was “NSCLCother, SCLC”.

For “344: peptide found in AR (gene looked up) (VPYPSPTCV; listed as Homo sapiens) [compound 344]”, the “Peptide Presentation on cancer entities” value [1] was “BRCA, HCC, UEC” and the “Gene Expression … over-expressed (+)” value [2] was “HCC, PRCA”.

“345: peptide found in AR (gene looked up) (SAAPPGASL; listed as Homo sapiens) [compound 345]” was tested, and the “Peptide Presentation on cancer entities” value [1] was “HCC” and the “Gene Expression … over-expressed (+)” value [2] was “HCC, PRCA”.

In the case of “347: peptide found in BRIP1 (gene looked up) (SPLEKINSF; listed as Homo sapiens) [compound 347]”, the “Peptide Presentation on cancer entities” value [1] is reported as “GBC” and the “Gene Expression … over-expressed (+)” value [2] is reported as “MEL, SCLC”.

In the case of “354: peptide found in TRIO (gene looked up) (APAKDARASL; listed as Homo sapiens) [compound 354]”, the “Peptide Presentation on cancer entities” value [1] is reported as “CRC, GBC, HNSCC, NSCLCadeno, NSCLCsquam, OC, OSCAR, UBC” and the “Gene Expression … over-expressed (+)” value [2] is reported as “GBM”.

In the case of “367: peptide found in OXTR (gene looked up) (APQVHIFSL; listed as Homo sapiens) [compound 367]”, the “Peptide Presentation on cancer entities” value [1] is reported as “BRCA, CRC, GBM, RCC, UEC”, the “Gene Expression in tumor samples: Highly over-expressed (++)” value [2] is reported as “CCC” and the “Gene Expression … over-expressed (+)” value [2] is reported as “GBM, OC”.
